Consider one substance from patent US20230301895A1 (NOVABIOTICS LIMITED, priority 2020, published 2023).

The data set is described as follows: peptide made by a vendor. As to conditions: whole synthesis.

On to cyclic R-R-R-R-R-R-R, for which the “purity (crude or final not stated)” value stood at 97.93% purity.
